Source: PubChem BioAssay (Tox21)
“And” between values parts separate entries of the source, which are not always exact repeats. Equal values may be shown once. Inconclusive results, whose numbers are uncertain, are shown with a selection of clear calls. For some of these results: A potency beside an inconclusive call is a rough fit, not a confirmed value. A structure can be active in one record and inactive in another. The source made the active and inactive calls. Unless noted, calls follow the shape of the full dose curve.

Chains of the proteins cited; added tags and fusions are not shown. Lines headed by an entry give the natural chain unless they say otherwise; changes in a name come on top.
UniProt P14416, whole entry, looked up: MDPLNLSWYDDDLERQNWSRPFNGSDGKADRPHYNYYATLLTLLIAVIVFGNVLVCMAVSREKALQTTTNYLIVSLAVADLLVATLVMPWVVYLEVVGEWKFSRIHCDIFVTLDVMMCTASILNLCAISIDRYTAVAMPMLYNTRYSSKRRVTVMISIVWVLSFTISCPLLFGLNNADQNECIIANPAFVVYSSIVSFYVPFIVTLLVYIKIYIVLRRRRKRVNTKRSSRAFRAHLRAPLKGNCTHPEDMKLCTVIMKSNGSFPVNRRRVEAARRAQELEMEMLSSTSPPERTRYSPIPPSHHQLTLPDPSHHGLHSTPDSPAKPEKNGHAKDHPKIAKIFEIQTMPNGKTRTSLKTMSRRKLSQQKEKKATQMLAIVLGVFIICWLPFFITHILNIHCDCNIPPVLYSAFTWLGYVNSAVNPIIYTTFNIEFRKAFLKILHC
UniProt P28223, whole entry, looked up: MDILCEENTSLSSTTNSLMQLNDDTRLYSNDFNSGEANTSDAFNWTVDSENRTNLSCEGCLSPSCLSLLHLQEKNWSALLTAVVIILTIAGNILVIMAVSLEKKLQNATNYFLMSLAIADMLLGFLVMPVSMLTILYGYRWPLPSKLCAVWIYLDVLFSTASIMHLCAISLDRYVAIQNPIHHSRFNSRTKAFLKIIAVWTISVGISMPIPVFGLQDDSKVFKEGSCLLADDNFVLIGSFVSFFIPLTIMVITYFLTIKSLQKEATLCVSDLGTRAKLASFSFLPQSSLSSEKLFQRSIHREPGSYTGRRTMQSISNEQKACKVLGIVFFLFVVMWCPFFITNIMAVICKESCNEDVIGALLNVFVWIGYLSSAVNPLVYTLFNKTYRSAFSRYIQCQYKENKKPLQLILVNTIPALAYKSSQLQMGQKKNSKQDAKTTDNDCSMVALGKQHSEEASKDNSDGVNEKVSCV
UniProt P11229: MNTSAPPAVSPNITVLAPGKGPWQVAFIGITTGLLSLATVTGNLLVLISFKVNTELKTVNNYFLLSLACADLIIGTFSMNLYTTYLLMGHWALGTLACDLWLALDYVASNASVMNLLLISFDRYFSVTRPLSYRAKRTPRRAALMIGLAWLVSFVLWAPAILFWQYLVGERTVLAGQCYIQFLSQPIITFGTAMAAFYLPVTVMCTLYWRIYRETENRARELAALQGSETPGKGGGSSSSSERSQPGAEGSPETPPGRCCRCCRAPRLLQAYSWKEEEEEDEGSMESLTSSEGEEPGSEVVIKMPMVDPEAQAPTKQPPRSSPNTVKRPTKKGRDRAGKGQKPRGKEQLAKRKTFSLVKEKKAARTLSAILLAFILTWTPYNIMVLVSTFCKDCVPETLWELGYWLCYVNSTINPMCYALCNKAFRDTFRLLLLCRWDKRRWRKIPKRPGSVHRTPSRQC

Assays:
[1] = Nuclear factor erythroid 2-related factor 2/antioxidant responsive element (Nrf2/ARE) small molecule agonists: luciferase reporter gene qHTS assay in human keratinocytes (AID 1919969); conditions: KeratinoSens HaCaT ARE-luciferase, luminescence, 24 h; activity, positive = activation: at 92.4 µM (top of the series); also: nearly all actives have a fitted effect of over 35% in size; also: potency is read from the fitted curve at half-maximal effect; as to activity, positive = activation: % is scaled to controls: 0 for no effect and ±100 for the full control effect
[2] = p53 small molecule agonists, cell-based qHTS assay with rat liver microsomes: qHTS cell viability counter screen (AID 1963580); also: nearly all actives have a fitted effect of over 45% in size; also: potency is read from the fitted curve at half-maximal effect
Summary of the method: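 p53RE-bla HCT-116 cells (4,000/well) rested 5 h at 37 C, then given Tox21 compounds in DMSO with rat liver microsomes (0.5 mg/mL final) plus NADPH (0.5 mg/mL final) for 16 h at 37 C. Viability read by CellTiter-Glo luminescence after 30 min at room temperature.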

[3] = p53 small molecule agonists, cell-based qHTS assay (AID 1963582; active = well fitted activation curve with a large enough effect in the signal ratio in the repeat runs, not every such curve was filed as active; inconclusive = weak or mixed curves; the % refers to the signal ratio; also: potency is read from the fitted curve at half-maximal effect); conditions: HCT-116 p53RE-bla reporter, beta-lactamase FRET ratio, 16 h; activation: at 66 µM (top of the series) unless noted
Summary of the method: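 Reporter line: p53RE-bla. Pre-incubation 5 h, 37 C, 5% CO2; compound (DMSO, pin tool) 16 h, 37 C; B/G FRET substrate 2 h RT; fluorescence intensity read.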

[4] = biological target: Beta-2 adrenergic receptor (Homo sapiens) (UniProt P07550); assay: Adrenergic beta2 receptor (ADRB2) small molecule agonists, cell-based qHTS assay (AID 1963593); conditions: CHO-ADRB2 cells, cAMP HTRF, 30 min; also: potency is read from the fitted curve at half-maximal effect;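 as to activation: CHO cells stably overexpressing human ADRB2; % is scaled to controls: 0 for no effect and ±100 for the full control effect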
Summary of the method: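 CHO cells stably over-expressing ADRB2 were plated overnight at 37C, then dosed with compounds plus a stimulation mix containing 100uM IBMX and 25uM Ro-20-1724 for 0.5hr at room temperature. cAMP was measured by HTRF competition, 1hr.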

[5] = biological target: D(2) dopamine receptor (Homo sapiens) (UniProt P14416); assay: Dopamine D2 receptor (DRD2) small molecule agonists, cell-based qHTS assay (AID 1963594); conditions: HEK293-DRD2 cAMP HTRF, agonist mode, 30 min; activation: at 92.4 µM (top of the series) unless noted; also: % is scaled to controls: 0 for no effect and ±100 for the full control effect; nearly all actives have a fitted effect of over 35% in size
Summary of the method: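 HEK293 cells stably expressing DRD2 were cultured 24 h at 37 C, then given Ro20-1724 (0.1 mM final) and compounds for 10 min at room temperature. NKH477 (200nM) was then added for 30 min. cAMP was read by HTRF.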

[6] = p53 small molecule agonists, cell-based qHTS assay: qHTS cell viability counter screen (AID 1963581); also: nearly all actives have a fitted effect of over 45% in size; also: potency is read from the fitted curve at half-maximal effect
Summary of the method: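 HCT-116 p53RE-bla cells, 4,000/well, plated 5 h before compound pin transfer; 16 h at 37 C; bla substrate 2 h RT; then CellTiter-Glo, 30 min RT, luminescence.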

[7] = biological target: 5-hydroxytryptamine receptor 2A (Homo sapiens) (UniProt P28223); assay: 5-hydroxytryptamine receptor 2A (HTR2A) small molecule antagonists, cell-based qHTS assay (AID 1963586); also: nearly all actives have a fitted effect of over 45% in size; also: potency is read from the fitted curve at half-maximal effect
Summary of the method: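 Antagonist-mode intracellular calcium assay: DOI (4 nM) added after 5 min compound pre-incubation at room temperature to dye-loaded HTR2A-CHO cells. Fluorescence followed for 3 min, sampled every second.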

[8] = cAMP Responsive Elements (CRE) small molecule antagonists, cell-based qHTS assay (AID 1963591; active = well fitted inhibition curve with a large enough effect in the signal ratio in the repeat runs, not every such curve was filed as active; inconclusive = weak or mixed curves, or effect the other way; the % refers to the signal ratio; also: potency is read from the fitted curve at half-maximal effect); conditions: CRE-bla HEK293T, beta-lactamase FRET ratio; activity change, negative = inhibition: at 92.4 µM (top of the series) unless noted
Summary of the method: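 Beta-lactamase reporter read by FRET substrate (LiveBLAzer B/G) after 2 h at room temperature. CRE-bla HEK293T cells had received compound plus 0.25 uM (final) NKH477 for 3 h at 37 °C.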

[9] = biological target: D(2) dopamine receptor (Homo sapiens) (UniProt P14416); assay: Dopamine D2 receptor (DRD2) small molecule antagonists, cell-based qHTS assay (AID 1963595; active = well fitted inhibition curve with a large enough effect in the signal ratio in the repeat runs, with a control signal flat; inconclusive = weak or mixed curves, or effect the other way; the % refers to the signal ratio; also: % is scaled to controls: 0 for no effect and ±100 for the full control effect); conditions: HEK293-DRD2 cAMP HTRF antagonist mode; activity change, negative = inhibition: at 92.4 µM (top of the series) unless noted
Summary of the method: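 HTRF cAMP read-out at 665 and 620 nm emission (340 nm excitation). Antagonist mode: compounds were tested against 12 nM quinpirole in DRD2-HEK293 cells, with 200 nM NKH477 raising cAMP and 0.1 mM Ro20-1724 blocking its breakdown.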

[10] = cAMP Responsive Elements (CRE) small molecule agonists, cell-based qHTS assay (AID 1963590); conditions: CRE-bla HEK293T, beta-lactamase FRET ratio, 3 h; activation: at 92.4 µM (top of the series) unless noted; also: potency is read from the fitted curve at half-maximal effect; as to activation: % is scaled to controls: 0 for no effect and ±100 for the full control effect
Summary of the method: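 HEK 293T CRE-bla, 2,000 cells/well, 18 h preincubation 37 C/5% CO2; cpds (DMSO) pinned, 3 h; LiveBLAzer B/G FRET substrate, 2 h RT.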

[11] = biological target: Muscarinic acetylcholine receptor M1 (Homo sapiens) (UniProt P11229); assay: Cholinergic receptor muscarinic 1 (CHRM1) small molecule antagonists, cell-based qHTS assay (AID 1963588); also: nearly all actives have a fitted effect of over 40% in size; also: potency is read from the fitted curve at half-maximal effect
Summary of the method: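 CHRM1-CHO calcium-flux assay, antagonist mode. Cells were seeded 18 h, dye-loaded 1 h at 37 C and given compound for 5 min at RT, then acetylcholine was added at 50nM. FDSS fluorescence was read 3 min; 15 concentrations, three runs.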

[12] = p53 small molecule agonists, cell-based qHTS assay with human liver microsomes: qHTS cell viability counter screen (AID 1963579); also: % is scaled to controls: 0 for no effect and ±100 for the full control effect; nearly all actives have a fitted effect of over 45% in size
Summary of the method: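 Metabolic activation used human liver microsomes and NADPH, both 0.5 mg/mL final, over 16 hours at 37 C on p53RE-bla cells (4,000/well). Cytotoxicity measured by CellTiter-Glo luminescence, 30 min at room temperature.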

[13] = biological target: 5-hydroxytryptamine receptor 2A (Homo sapiens) (UniProt P28223); assay: 5-hydroxytryptamine receptor 2A (HTR2A) small molecule agonists, cell-based qHTS assay (AID 1963587); also: potency is read from the fitted curve at half-maximal effect; nearly all actives have a fitted effect of over 30% in size
Summary of the method: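 HTR2A-CHO cells, plated 18 h at 37 C/5% CO2, dye-loaded 1 h at 37 C; compounds in DMSO added by pin tool (agonist mode). Intracellular calcium flux read as kinetic fluorescence on FDSS over 2 min at 1 s intervals.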

[14] = activation: at 92.4 µM (top of the series) unless noted

CC(CO)(CO)CO
Potency [1]: inconclusive: 69.5 µM [activator, single point]
Potency [2]: inconclusive: 46.4 µM [cytotoxic, partial curve, poor fit]
Potency [3]: inconclusive: 0.0293 µM [falling, full curve, poor fit]
activation [4, 14]: inconclusive: 20.8%
Potency [5]: inactive

Cc1ccc(O)c2ncccc12
Potency [1]: inconclusive: 1.33 µM [activator, single point]
Potency [2]: inconclusive: 1.58 µM [cytotoxic, full curve, poor fit]
Potency [6]: inactive
Potency [7]: inactive
Potency [8]: active: 13.3 µM
Potency [4, 14]: inconclusive: 1.06 µM [inhibitor, partial curve, poor fit]
activation [5]: inconclusive: 6.94% [at 42.5 µM]

CCCCCCCO
Potency [1]: inactive and active: 61.1 µM
Potency [2]: inconclusive: 0.413 µM [cytotoxic, single point]
Potency [6]: inconclusive: 18.5 µM [rising, single point]
Potency [7]: inconclusive: 0.0095 µM [inhibitor, full curve, poor fit]
Potency [4, 14]: inactive
activity change, negative = inhibition [9]: inconclusive: -36.2%

CC(=O)Nc1cccc(N)c1
Potency [1]: inconclusive: 31.1 µM [activator, partial curve]
Potency [2]: inconclusive: 1.65 µM [cytotoxic, single point]
Potency [6]: inconclusive: 4.64 µM [cytotoxic, single point]
Potency [11]: inactive
activation [4, 14]: inconclusive: 6.63%

O=C(/C=C/c1ccccc1)OCCc1ccccc1
Potency [1]: inconclusive: 10.9 µM [activator, partial curve]
Potency [2]: inconclusive: 18.2 µM [rising, single point]
Potency [3]: inactive
activation [4, 14]: inconclusive: 3.32%
activity change, negative = inhibition [9]: inconclusive: -26.2%

NC(=O)c1ccccc1
Potency [1]: inactive
Potency [12]: inactive
Potency [4, 14]: inactive
Potency [9]: inactive

c1ccc(-c2nc3ccccc3[nH]2)cc1
Potency [1]: inconclusive: 6.11 µM [activator, single point]
Potency [2]: inconclusive: 1.82 µM [cytotoxic, partial curve, poor fit]
Potency [6]: inconclusive: 25.7 µM [cytotoxic, partial curve, poor fit]
Potency [10]: inactive
Potency [4, 14]: inconclusive: 0.486 µM [inhibitor, full curve, poor fit]

C/C=C/C=C/CO
Potency [1]: inconclusive: 54.5 µM [activator, partial curve]
Potency [2]: inconclusive: 18.2 µM [cytotoxic, single point]
Potency [3]: inconclusive: 18.2 µM [rising, partial curve, poor fit]
Potency [4, 14]: inconclusive: 43.3 µM [inhibitor, partial curve, poor fit]

COc1ccc(N)c(C)c1
Potency [1]: inconclusive: 68.2 µM [activator, partial curve, poor fit]
Potency [2]: inactive
Potency [11]: inconclusive: 0.0094 µM [inhibitor, full curve, poor fit]
activation [4, 14]: inconclusive: -10.8%
activation ([4]; at 92.4 µM (top of the series)): inactive: -6.31%

C=C(c1ccc(C(=O)O)cc1)c1cc2c(cc1C)C(C)(C)CCC2(C)C
Potency [1]: inconclusive: 13.3 µM [activator, single point]
Potency [2]: inconclusive: 22.3 µM [cytotoxic, single point]
Potency [6]: active: 12.6 µM
Potency [7]: inconclusive: 11.6 µM [inhibitor, partial curve, poor fit]
Potency [13]: inconclusive: 49 µM [activator, partial curve, poor fit] and inconclusive: 23.9 µM [activator]
Potency [11]: inactive and active: 18.3 µM
Potency [10]: inconclusive: 24.3 µM [fluorescent] and inconclusive: 29.8 µM [fluorescent]
Potency [8]: inconclusive: 11.9 µM [rising, partial curve, poor fit]
Potency [4, 14]: inactive
activity change, negative = inhibition [9]: inconclusive: 2.38% [at 42.5 µM]

CCCCCCC(CO)CCCC (configuration not stated)
Potency [1]: inactive
Potency [2]: inconclusive: 40.8 µM [cytotoxic, partial curve, poor fit]
Potency [11]: inactive

Nc1nc(=S)c2[nH]cnc2[nH]1
Potency [1]: inconclusive: 26.6 µM [activator, single point]
Potency [2]: inconclusive: 50 µM [cytotoxic, single point]
Potency [6]: inconclusive: 2.51 µM [cytotoxic, full curve] and inconclusive: 3.63 µM [cytotoxic, full curve, poor fit] and inconclusive: 3.54 µM [cytotoxic, full curve]
Potency [4, 14]: inactive
activity change, negative = inhibition [9]: inconclusive: -12.2%
